Results as given in US9018248B2, “Fatty acid derivatives of catechins and methods of their use” (Genesis Group Inc., priority 2010, dated 2015).
Some of these results come from one statement about several compounds together.

Test: Bulk oil system, stripped corn oil, Rancimat
Details: at the lowest concentration
Procedure: One milliliter of EGCG and its derivatives dissolved in ethanol (1 μmol/ml) was transferred into a reaction vessel, followed by evaporation of the solvent to dryness under a stream of nitrogen. To each vessel (an empty vessel was used as control) 3 g of stripped corn oil (devoid of endogenous antioxidants) were added. The evaluation was carried out under accelerated oxidation in a Rancimat (Metrohm Model 743, Herisau, Switzerland) conditions at 100° C. with an air flow rate of 20 l/h. Lipid oxidation in the absence and presence of test compounds was monitored by changes in electrical conductivity, arising from the formation of volatile oxidation products. The induction periods (IP, time to reach a sudden increase in oxidation rate) were recorded. […] Antioxidant activity was interpreted as protection factor (PF), which was calculated as follow. PF=IPsample/IPcontrol where, IPsample and IPcontrol represent induction periods for the oil with and without test compounds, respectively. Discussion

SMILES	Protection Factor (PF)
CCC=CCC=CCC=CCC=CCC=CCC=CCCC(=O)Oc1cc(C(=O)OC2Cc3c(O)cc(O)cc3OC2c2cc(OC(=O)CCC=CCC=CCC=CCC=CCC=CCC=CCC)c(O)c(OC(=O)CCC=CCC=CCC=CCC=CCC=CCC=CCC)c2)cc(OC(=O)CCC=CCC=CCC=CCC=CCC=CCC=CCC)c1O (centres unmarked) [Compound 1c]	> 1
CCC=CCC=CCC=CCC=CCC=CCCCC(=O)Oc1cc(C(=O)OC2Cc3c(O)cc(O)cc3OC2c2cc(OC(=O)CCCC=CCC=CCC=CCC=CCC=CCC)c(O)c(OC(=O)CCCC=CCC=CCC=CCC=CCC=CCC)c2)cc(OC(=O)CCCC=CCC=CCC=CCC=CCC=CCC)c1O (centres unmarked) [Compound 1b]	> 1
